Data taken from ChEMBL document CHEMBL3988442, “University of Dundee, Small-Polar-MMV Screening Library” (2021).

Sequences of proteins named here, by UniProt entry; tags and fusion partners are left off.
UniProt E9BF75, entry or part of it: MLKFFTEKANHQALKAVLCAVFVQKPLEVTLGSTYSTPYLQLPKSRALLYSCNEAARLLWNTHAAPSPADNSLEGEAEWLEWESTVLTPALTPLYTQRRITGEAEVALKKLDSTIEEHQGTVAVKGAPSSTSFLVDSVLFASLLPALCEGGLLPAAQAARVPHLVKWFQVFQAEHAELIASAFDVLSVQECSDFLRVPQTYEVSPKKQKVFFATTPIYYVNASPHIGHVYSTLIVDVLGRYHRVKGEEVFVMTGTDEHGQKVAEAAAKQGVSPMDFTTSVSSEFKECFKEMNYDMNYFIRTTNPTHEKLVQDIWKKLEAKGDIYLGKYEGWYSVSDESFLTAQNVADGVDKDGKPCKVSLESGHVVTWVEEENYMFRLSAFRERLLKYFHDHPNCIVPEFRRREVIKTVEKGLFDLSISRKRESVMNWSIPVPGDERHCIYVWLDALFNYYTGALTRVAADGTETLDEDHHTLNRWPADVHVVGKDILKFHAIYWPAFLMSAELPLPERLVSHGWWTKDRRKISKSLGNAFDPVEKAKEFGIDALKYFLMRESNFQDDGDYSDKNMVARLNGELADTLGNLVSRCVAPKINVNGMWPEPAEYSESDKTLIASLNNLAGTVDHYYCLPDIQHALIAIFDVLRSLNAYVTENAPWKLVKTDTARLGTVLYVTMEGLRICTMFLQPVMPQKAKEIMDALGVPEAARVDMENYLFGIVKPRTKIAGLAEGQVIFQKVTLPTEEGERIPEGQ

A: 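Primary screen of methionyl-tRNA synthetase; the read-out is not stated. Target: Methionyl-tRNA synthetase (putative), Leishmania donovani (UniProt E9BF75). The test concentration is not given. The values are filed as inhibition. Size under these conditions: about 68,000 compounds, about 24 of them at 50% or above in at least one test.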
B: 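Assay on Mycobacterium tuberculosis, filed only as a heat shock assay from Cornell; the read-out is not stated. The concentration is filed as 10 mM, unlikely as a test dose, so the dose is not known. The record gives no direction; compounds that gave an IC50 in retests scored well above the rest, so higher reads as stronger inhibition. Of about 69,000 compounds tested this way, about 930 (1.4%) reached 50% or more in at least one test.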

All values are in %. How 0% and 100% were set is not recorded. Most values in the screen are low, and negative values occur. The compounds are a random part of those screened. A dash means the value is not listed here; it may have been measured.

SMILES	A	B
CC(C)N(C)Cc1cn2c(n1)CN(C(=O)Cc1ccccc1)CC2	6.748	-
COc1ccc(-n2c(COC(C)C)n[nH]c2=O)cc1	13.59	3.309
O=C(C1CN(CC2CCOCC2)CC12CCOCC2)N1CCCC1 (centres undefined)	13.78	-
CCOc1cccc(C(C)NC(=O)N2CCC(C(N)=O)CC2)c1 (centres undefined)	16.3	-15.54
CNC(=O)c1cc2c(nc1NCC1CC1)CCN(CC1CC1)CC2.O=C(O)C(F)(F)F.O=C(O)C(F)(F)F	-	-24.38
CCNC(=O)[C@@H]1C[C@H](NC(=O)c2cncnc2C)CN1CCCSC	16.5	-1.385
CN(CC(=O)N(C)C1CCCCC1)Cc1nc2c(cnn2C)c(=O)[nH]1	0.7692	-5.559
COC1CCN(CCNC(=O)NC(C)c2ccc(F)c(F)c2)CC1 (centres undefined)	4.963	11.84
Cc1nc2c(c(=O)n1C)CN(C(=O)C1CCCN(C(=O)N(C)C)C1)C2 (centres undefined)	5.301	3.998
COC(=O)CNC(=O)c1ccn(-c2ccc(Cl)c(Cl)c2)n1	15.41	-0.1769
CC1CCc2nc(O)c(C(=O)NCCc3cccs3)cc2C1 (centres undefined)	11.69	13.75
CCOc1cc(F)ccc1NS(=O)(=O)c1cc(C)c(C(=O)O)s1	8.55	10.81
Cc1nc(N)c2ccc(C3CCCCN3)nc2n1 (centres undefined)	7.188	-
O=C(O)C(F)(F)F.[H][C@@]12CN(Cc3ccccc3F)C[C@H](C(=O)N3CCCO3)[C@]1([H])CCO2	-	-67.91
O=c1c2c(ncn1CCO)nc1n2CCC1	13.53	-3.794
Fc1cccc(CN2C[C@@H]3COC[C@]3(COCc3ccncc3)C2)c1	4.667	-
Cl.Cn1ccnc1Sc1ccc(N)cn1	-	-8.893
COCc1nc(C(=O)N2CCN(Cc3ccsc3)CC2)cs1	10.78	-16.96
Cc1nc(CN2C[C@@H]3CN(C(=O)c4cnccn4)C[C@@H]3C2=O)cs1	16.19	-
CC(Nc1ncnc2c1CCNC2)c1ccc(C(C)(C)C)cc1 (centres undefined)	25.22	-2.792
Cc1noc(C)c1C(=O)NCCSCc1cccs1	6.032	-11.86
CN1C2(CCN(Cc3ccc(F)cc3)C2)c2ccccc2S1(=O)=O (centres undefined)	4.762	-3.994
CCc1ocnc1C(=O)N1CCOC(CCCC(C)C)C1 (centres undefined)	0.7194	2.233
Cc1nc2cc(O)nn2c(C)c1CCC(=O)N(C)Cc1cscn1	11.97	-2.123
OC1CCN(c2cncc(CCC3CCCN3)n2)CC1 (centres undefined)	13.98	-
Cc1cc(NC(=O)C(C)C)n(-c2nc(C)c(C)c(=O)[nH]2)n1	8.869	104.4
N#Cc1ccc(SCCC(=O)Nc2ccc(CC(N)=O)cc2)cc1	16.01	-107.3
Cc1ncc2c(n1)CN(Cc1noc(C3CC3)n1)CC2	11.74	3.756
CCO[C@H]1CO[C@@]2(CCCN(S(=O)(=O)c3cccnc3)C2)C1.O=C(O)C(F)(F)F	-	7.42
Cn1ccc(CN2CCC3(CCCN3CC3CC3)CC2)n1	15.58	-
CCN(CC)S(=O)(=O)c1ccc(CNc2cc(C)nc(C)n2)cc1	9.137	1.771
COc1ccccc1CNc1ncc(-c2cc(C)no2)c(C(C)C)n1	12.43	-3.778
Cc1cnn(CCNCCCOc2ccc(C#N)cc2)c1	2.174	4.634
CC(C)N1CCC2(CCN(C(=O)c3cccnc3)CC2)C1	9.764	-
COc1c(CNCc2cccc(CS(C)(=O)=O)c2)c(C)nn1C	7.19	10.78
O=C(c1ccccc1)N1CCC2(CC1)CNc1c(F)cccc12	10.38	-
CCC(O)CNc1nccc(-c2ccc(C)nc2C)n1 (centres undefined)	14.15	6.741
CN(Cc1ccccc1C#N)C1CCN(CCc2ccccn2)CC1	22.91	-17.36
CCN(CC)C(CNS(=O)(=O)c1ccc(C(C)=O)cc1)c1ccco1 (centres undefined)	12.81	0.4607
Cc1cnc(CN(C)C2CCN(CCCc3ccccc3)C2)o1 (centres undefined)	4.913	-11.75
Cn1ccnc1CNC(=O)CC1CCCCO1 (centres undefined)	8.721	-4.438
CC(C)N1CCOCC2(CN(Cc3ccco3)CCO2)C1 (centres undefined)	18.5	-21.52
O=C1CNc2ncnc(N3CCN(Cc4ccccc4)CC3)c2N1	10.48	-22.2
CC(C)(C)C(O)CN1CCN(C(=O)COCC2CC2)CC1 (centres undefined)	11.81	-11.66
[H][C@@]12COC[C@@H](C(=O)Nc3cnccn3)[C@]1([H])CN(c1ncc(F)cn1)C2	-	-12.41
O=C(Nc1cc(-c2cccnc2)no1)C1CCC1	17.29	-1.168
O=C(O)C(F)(F)F.O=C(O)C(F)(F)F.O=C1COC2(CCN(Cc3cccnc3)CC2)CN1c1ccccc1	-	32.63
Cc1ccc(CN[C@@H]2COC[C@H]2Cc2cc(C)no2)cc1.O=C(O)CC(O)(CC(=O)O)C(=O)O	-	0.5554
Cc1oncc1C(=O)N1CCC2(CC1)CN(S(C)(=O)=O)c1ccccc12	17.93	3.253
Cc1oc(C)c(C(=O)NCc2ccccc2CN(C)C)c1C	9.474	-23.82
CCn1cc(-c2c(C)c(C3CCOC(C)(C)C3)nc(N)c2C#N)cn1 (centres undefined)	7.736	-5.239
Cc1cc(C)n2ncc(CN3CCC(n4cc(CCO)nn4)CC3)c2n1	13.64	5.512

7 of the entries, repeated:

SMILES	A	B
CCn1cc(-c2c(C)c(C3CCOC(C)(C)C3)nc(N)c2C#N)cn1 (centres undefined)	7.736	-5.239
Cc1nc(CN2C[C@@H]3CN(C(=O)c4cnccn4)C[C@@H]3C2=O)cs1	16.19	-
O=C(c1ccccc1)N1CCC2(CC1)CNc1c(F)cccc12	10.38	-
Cc1ncc2c(n1)CN(Cc1noc(C3CC3)n1)CC2	11.74	3.756
COc1c(CNCc2cccc(CS(C)(=O)=O)c2)c(C)nn1C	7.19	10.78
Cn1ccnc1CNC(=O)CC1CCCCO1 (centres undefined)	8.721	-4.438
COC1CCN(CCNC(=O)NC(C)c2ccc(F)c(F)c2)CC1 (centres undefined)	4.963	11.84